Where a name gives a salt, the structure may show the parent alone. ± gives the standard deviation of the averaged measurements. The list shows a part of the results. Values are raw readings; no control value is given beside them.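 Ribosome-assembly readouts in HeLa cells were imaged via ENP1 staining, with or without export block, or inducible tagged ribosomal protein reporters. Machine learning classified per-cell signal location versus solvent (DMSO) controls. Hits surpassed the DMSO false-positive mean by five standard deviations and were visually confirmed; three biological replicates.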
Assays:
[1] = system: HeLa K (ENP1 immunofluorescence, +LMB); assay: fraction of cells with nucleolar or nucleolar/nucleoplasmic ENP1 signal (MainHitrate); higher = more cells with nucleolar/nuclear readout signal (for ENP1 -LMB: less RNAPI inhibition; for +LMB ENP1 and RP reporters: stronger nuclear/nucleolar retention, i.e. ribosome biogenesis defect); settings: concentration: 1 µM; treatment time: 6 h; ENP1 +LMB; leptomycin B: 20 nM, last 1.5 h
[2] = system: HeLa K (ENP1 immunofluorescence, no LMB); assay: as above; settings: concentration: 1 µM; treatment time: 6 h; ENP1 -LMB; leptomycin B: none
HeLa RPS2-YFP reporter = assay: fraction of reporter-positive cells with nuclear (nucleolar or nucleolar/nucleoplasmic) RPS2-YFP (MainHitrate); higher = more cells with nucleolar/nuclear readout signal (for ENP1 -LMB: less RNAPI inhibition; for +LMB ENP1 and RP reporters: stronger nuclear/nucleolar retention, i.e. ribosome biogenesis defect); settings: concentration: 1 µM; treatment time: 6 h
HeLa RPL29-GFP reporter = assay: fraction of reporter-positive cells with nuclear (nucleolar or nucleolar/nucleoplasmic) RPL29-GFP (MainHitrate); higher = more cells with nucleolar/nuclear readout signal (for ENP1 -LMB: less RNAPI inhibition; for +LMB ENP1 and RP reporters: stronger nuclear/nucleolar retention, i.e. ribosome biogenesis defect); settings: concentration: 1 µM; treatment time: 6 h

| Structure (SMILES) | fraction [1] | fraction [2] | fraction of reporter-positive cells with nuclear (HeLa RPS2-YFP reporter) | fraction of reporter-positive cells with nuclear (HeLa RPL29-GFP reporter) |
| --- | --- | --- | --- | --- |
| CCCCCCCCCCCCCCCC[n+]1ccccc1 [Cetylpyridinium Chloride] | 0.0594 ± 0.071 | 0.976 ± 0.041 | 0.212 ± 0.19 | 0.236 ± 0.039 |
| NCCc1c[nH]c2ccc(O)cc12 [Serotonin HCl] | 0.0665 ± 0.084 | 0.9946 ± 0.0094 | 0.123 ± 0.089 | 0.224 ± 0.086 |
| O=c1[nH]c2ccccc2n1C1CCN(CCCC(c2ccc(F)cc2)c2ccc(F)cc2)CC1 [Pimozide] | 0.156 ± 0.22 | 0.924 ± 0.13 | 0.216 ± 0.18 | 0.253 ± 0.16 |
| CCN(C)C(=O)Oc1cccc([C@H](C)N(C)C)c1 [Rivastigmine tartrate (Exelon)] | 0.0642 ± 0.066 | 0.9964 ± 0.0062 | 0.0965 ± 0.073 | 0.237 ± 0.042 |
| Nc1nc(N)nc(NC2CC2)n1 [Cyromazine] | 0.0823 ± 0.11 | 0.981 ± 0.034 | 0.129 ± 0.11 | 0.213 ± 0.081 |
| CC(=O)OC1CN2CCC1CC2 (stereo not drawn) [Aceclidine HCl] | 0.206 ± 0.3 | 0.9977 ± 0.0039 | 0.221 ± 0.14 | 0.405 ± 0.23 |
| [O-][n+]1ccccc1[S-].[O-][n+]1ccccc1[S-].[Zn+2] [Pyrithione zinc] | 0.132 ± 0.17 | 0.992 ± 0.015 | 0.309 ± 0.31 | 0.467 ± 0.28 |
| C=C1C[C@@H]2[C@H](CC[C@]3(C)C(=O)CC[C@@H]23)[C@@]2(C)C=CC(=O)C=C12 [Exemestane] | 0.0937 ± 0.095 | 0.9972 ± 0.0049 | 0.116 ± 0.072 | 0.204 ± 0.065 |
| CCC1=C[C@H]2CN3CCc4c([nH]c5ccccc45)[C@](C(=O)OC)(C2)[C@H]13 [Catharanthine] | 0.0475 ± 0.061 | 0.981 ± 0.033 | 0.132 ± 0.095 | 0.203 ± 0.037 |
| C=C1CC[C@@]2(O)[C@H]3Cc4ccc(O)c5c4[C@@]2(CCN3CC2CC2)[C@H]1O5 [Nalmefene HCl] | 0.12 ± 0.15 | 0.9968 ± 0.0056 | 0.165 ± 0.14 | 0.294 ± 0.23 |
| CCC1(c2ccc(N)cc2)CCC(=O)NC1=O (stereo not drawn) [Aminoglutethimide (Cytadren)] | 0.0468 ± 0.038 | 0.9992 ± 0.0014 | 0.0626 ± 0.0077 | 0.216 ± 0.013 |
| CNC(=O)Oc1ccc2c(c1)[C@]1(C)CCN(C)[C@@H]1N2C [Physostigmine Salicylate] | 0.229 ± 0.22 | 0.9992 ± 0.0013 | 0.176 ± 0.18 | 0.288 ± 0.24 |
| Cc1cc(C(C#N)c2ccc(Cl)cc2)c(Cl)cc1NC(=O)c1cc(I)cc(I)c1O (stereo not drawn) [Closantel] | 0.082 ± 0.11 | 0.982 ± 0.032 | 0.136 ± 0.12 | 0.251 ± 0.07 |
| N.N.[Cl][Pt][Cl] [Cisplatin] | 0.0832 ± 0.071 | 0.9975 ± 0.0043 | 0.122 ± 0.04 | 0.207 ± 0.05 |
| CCC1(C)CC(=O)NC(=O)C1 [Bemegride] | 0.0706 ± 0.1 | 0.992 ± 0.014 | 0.128 ± 0.07 | 0.233 ± 0.058 |
| CC(=O)O[C@@]12CO[C@@H]1C[C@@H](O)[C@@]1(C)C(=O)[C@H](O)C3=C(C)[C@@H](O)C[C@@](O)([C@@H](OC(=O)c4ccccc4)[C@H]21)C3(C)C [10-DAB (10-Deacetylbaccatin)] | 0.159 ± 0.24 | 0.989 ± 0.02 | 0.118 ± 0.066 | 0.209 ± 0.076 |
| CCOC(=O)c1cncn1[C@H](C)c1ccccc1 [Etomidate] | 0.0552 ± 0.05 | 0.997 ± 0.0053 | 0.103 ± 0.074 | 0.212 ± 0.056 |
| CNC(=O)Oc1ccc2c(c1)[C@]1(C)CCN(C)[C@@H]1N2C [Physostigmine Hemisulfate Salt] | 0.0971 ± 0.12 | 0.9974 ± 0.0045 | 0.142 ± 0.11 | 0.334 ± 0.18 |
| O=P1(N(CCCl)CCCl)NCCCO1 (stereo not drawn) [Cyclophosphamide monohydrate] | 0.24 ± 0.38 | 0.9953 ± 0.0082 | 0.0834 ± 0.012 | 0.233 ± 0.081 |
| CC(NC(C)(C)C)C(=O)c1cccc(Cl)c1 (stereo not drawn) [Amfebutamone (Bupropion)] | 0.131 ± 0.2 | 0.9957 ± 0.0075 | 0.115 ± 0.067 | 0.231 ± 0.097 |
| CC1C=CC=CCCC=CC=CC=CC=CC(OC2OC(C)C(O)C(N)C2O)CC2OC(O)(CC(O)C(O)CCC(O)CC(O)CC(O)CC(=O)OC(C)C(C)C1O)CC(O)C2C(=O)O (stereo not drawn) [Nystatin (Mycostatin)] | 0.114 ± 0.17 | 0.994 ± 0.01 | 0.123 ± 0.075 | 0.236 ± 0.086 |
| CC(C)C[C@H]1C(=O)N2CCC[C@H]2[C@]2(O)O[C@](NC(=O)[C@@H]3C=C4c5cccc6[nH]c(Br)c(c56)C[C@H]4N(C)C3)(C(C)C)C(=O)N12 [Bromocriptine Mesylate] | 0.0799 ± 0.076 | 0.9985 ± 0.0026 | 0.185 ± 0.19 | 0.289 ± 0.26 |
| CC(C)N(CCNC(=O)CN1CCCC1=O)C(C)C [Pramiracetam] | 0.09 ± 0.12 | 0.984 ± 0.028 | 0.093 ± 0.094 | 0.198 ± 0.073 |
| CC[C@@H](C(N)=O)N1CCCC1=O [Levetiracetam] | 0.0858 ± 0.06 | 0.998 ± 0.0035 | 0.122 ± 0.07 | 0.204 ± 0.063 |
| COC(=O)C1=CCCN(C)C1 [Arecoline] | 0.11 ± 0.15 | 0.972 ± 0.049 | 0.13 ± 0.1 | 0.213 ± 0.051 |
| c1ccc2c(c1)sc1ccccc12 [Dibenzothiophene] | 0.0784 ± 0.11 | 0.9944 ± 0.0097 | 0.119 ± 0.088 | 0.243 ± 0.075 |
| Cc1cccc(Cc2c[nH]cn2)c1C [Detomidine HCl] | 0.0628 ± 0.079 | 0.9955 ± 0.0078 | 0.107 ± 0.095 | 0.237 ± 0.062 |

Quoted from the listing.
In fraction of reporter-positive cells with nuclear (HeLa RPL29-GFP reporter), CCC1(C)CC(=O)NC(=O)C1 [Bemegride] has the entry 0.233 ± 0.058
In fraction of reporter-positive cells with nuclear (HeLa RPL29-GFP reporter), c1ccc2c(c1)sc1ccccc12 [Dibenzothiophene] has the entry 0.243 ± 0.075

Source: the supplement of paper PMC12542422
